Measured values reported in article doi:10.1101/2025.07.05.663274.
These are yes or no findings as the source states them, for the method shown. In cells and extracts the contact can be indirect. Some binding calls cover weakened binding; strength is not graded here.

Amino acid sequences for entries named in this document (tags omitted).
UniProt Q92481: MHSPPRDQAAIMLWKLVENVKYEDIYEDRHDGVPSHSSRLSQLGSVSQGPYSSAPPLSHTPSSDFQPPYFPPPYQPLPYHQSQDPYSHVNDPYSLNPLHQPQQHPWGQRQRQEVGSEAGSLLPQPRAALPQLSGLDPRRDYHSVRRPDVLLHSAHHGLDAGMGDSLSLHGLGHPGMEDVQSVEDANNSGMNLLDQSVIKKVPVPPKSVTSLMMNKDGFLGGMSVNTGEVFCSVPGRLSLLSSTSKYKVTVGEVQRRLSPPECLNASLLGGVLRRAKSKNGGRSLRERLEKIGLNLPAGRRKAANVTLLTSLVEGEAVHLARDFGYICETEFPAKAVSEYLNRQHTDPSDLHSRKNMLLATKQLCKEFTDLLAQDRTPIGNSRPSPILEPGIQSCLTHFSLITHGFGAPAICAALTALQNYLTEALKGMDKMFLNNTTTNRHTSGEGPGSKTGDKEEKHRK
UniProt P10275: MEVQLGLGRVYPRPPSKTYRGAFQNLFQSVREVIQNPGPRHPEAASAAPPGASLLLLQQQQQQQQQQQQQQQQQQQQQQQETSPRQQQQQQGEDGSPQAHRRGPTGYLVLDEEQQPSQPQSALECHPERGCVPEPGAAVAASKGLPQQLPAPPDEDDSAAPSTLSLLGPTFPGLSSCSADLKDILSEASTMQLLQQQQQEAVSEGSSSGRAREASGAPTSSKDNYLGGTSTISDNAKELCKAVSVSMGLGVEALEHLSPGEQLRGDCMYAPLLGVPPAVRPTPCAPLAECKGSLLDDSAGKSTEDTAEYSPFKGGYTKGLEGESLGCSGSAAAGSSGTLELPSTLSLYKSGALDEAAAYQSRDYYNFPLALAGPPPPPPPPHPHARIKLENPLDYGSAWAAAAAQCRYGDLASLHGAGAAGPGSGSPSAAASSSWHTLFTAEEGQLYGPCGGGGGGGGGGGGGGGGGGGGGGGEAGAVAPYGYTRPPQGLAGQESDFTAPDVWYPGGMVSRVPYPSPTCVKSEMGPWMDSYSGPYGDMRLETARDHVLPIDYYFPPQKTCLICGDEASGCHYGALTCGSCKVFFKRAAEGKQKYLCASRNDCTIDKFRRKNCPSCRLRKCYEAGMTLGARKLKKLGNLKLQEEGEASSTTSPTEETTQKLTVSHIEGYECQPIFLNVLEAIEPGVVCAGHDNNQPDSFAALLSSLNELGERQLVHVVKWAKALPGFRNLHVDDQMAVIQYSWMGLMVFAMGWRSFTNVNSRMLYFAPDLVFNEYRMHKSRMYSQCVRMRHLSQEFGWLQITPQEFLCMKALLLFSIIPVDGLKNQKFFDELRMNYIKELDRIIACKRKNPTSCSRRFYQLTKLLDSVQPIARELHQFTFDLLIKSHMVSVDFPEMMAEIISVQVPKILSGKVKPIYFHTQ

How the values were obtained:
[1] = target: transcription factor Activating Protein 2β (human (endogenous in MDA-MB-453)) (UniProt Q92481); test: proximity ligation
[2] = target: transcription factor Activating Protein 2β (human (endogenous in MDA-MB-453)) (UniProt Q92481); test: proximity ligation; remark: listed apart in the source
[3] = target: transcription factor Activating Protein 2β (human (endogenous in MDA-MB-453)) (UniProt Q92481); test: co-IP

Measured: binding

androgen receptor (from UniProt P10275 1-920)
binds: all assays above
